According to US20140239906A1, “REDOX-ACTIVE LIGAND-BASED TRANSITION METAL COMPLEX FLOW BATTERIES” (Sandia Corporation, priority 2013, published 2014):

Assay: Static cell (H-cell) galvanostatic charge-discharge cycling
Details: 20 mM in acetonitrile, 0.1 M [TBA][PF6]

Structure (SMILES): CC[N+](CC)(CC)CC.CC[N+](CC)(CC)CC.N#CC([S-])=C([S-])C#N.N#CC([S-])=C([S-])C#N.N#CC([S-])=C([S-])C#N.[V+4] [1b]
- decrease of capacity during charge cycles (from cycle 2 to cycle 16): ~20%
- electrochemical yield (faradaic efficiency) of charge cycles, initial (initially): ~45%
- coulombic efficiency (stabilizes by cycle 5): ~90%
